# Measurements published in the supplement of paper PMC11006884.
# By UniProt entry, the sequences of proteins in these tests, tags left out. Where a name states a change or a piece, a line headed by the entry shows the natural chain unless it says otherwise.
# UniProt Q9NXV6: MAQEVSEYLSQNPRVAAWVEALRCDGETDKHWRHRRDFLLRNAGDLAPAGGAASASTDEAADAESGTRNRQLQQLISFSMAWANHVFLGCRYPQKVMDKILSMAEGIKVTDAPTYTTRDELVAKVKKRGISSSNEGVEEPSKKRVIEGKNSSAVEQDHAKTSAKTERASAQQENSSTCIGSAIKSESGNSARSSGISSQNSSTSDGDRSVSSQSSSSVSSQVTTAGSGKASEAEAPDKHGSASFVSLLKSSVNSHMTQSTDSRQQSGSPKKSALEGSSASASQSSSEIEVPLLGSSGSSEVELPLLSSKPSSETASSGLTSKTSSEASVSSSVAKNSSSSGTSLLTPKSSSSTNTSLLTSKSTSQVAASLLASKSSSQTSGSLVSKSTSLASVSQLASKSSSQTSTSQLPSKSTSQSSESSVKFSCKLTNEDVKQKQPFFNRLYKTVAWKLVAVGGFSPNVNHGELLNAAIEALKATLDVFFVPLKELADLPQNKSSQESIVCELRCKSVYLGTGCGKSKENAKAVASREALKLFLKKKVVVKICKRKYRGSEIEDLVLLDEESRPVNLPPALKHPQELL
# UniProt Q9NWV8, whole entry: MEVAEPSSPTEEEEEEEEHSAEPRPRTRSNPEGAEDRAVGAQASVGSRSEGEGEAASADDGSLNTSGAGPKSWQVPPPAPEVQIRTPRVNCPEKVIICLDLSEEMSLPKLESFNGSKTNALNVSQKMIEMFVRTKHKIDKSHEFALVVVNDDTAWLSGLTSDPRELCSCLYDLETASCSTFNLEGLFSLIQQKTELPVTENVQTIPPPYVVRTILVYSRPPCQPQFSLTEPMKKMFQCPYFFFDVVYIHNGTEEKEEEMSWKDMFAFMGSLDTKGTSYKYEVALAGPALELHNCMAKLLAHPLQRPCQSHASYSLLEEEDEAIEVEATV
# UniProt Q9NV64: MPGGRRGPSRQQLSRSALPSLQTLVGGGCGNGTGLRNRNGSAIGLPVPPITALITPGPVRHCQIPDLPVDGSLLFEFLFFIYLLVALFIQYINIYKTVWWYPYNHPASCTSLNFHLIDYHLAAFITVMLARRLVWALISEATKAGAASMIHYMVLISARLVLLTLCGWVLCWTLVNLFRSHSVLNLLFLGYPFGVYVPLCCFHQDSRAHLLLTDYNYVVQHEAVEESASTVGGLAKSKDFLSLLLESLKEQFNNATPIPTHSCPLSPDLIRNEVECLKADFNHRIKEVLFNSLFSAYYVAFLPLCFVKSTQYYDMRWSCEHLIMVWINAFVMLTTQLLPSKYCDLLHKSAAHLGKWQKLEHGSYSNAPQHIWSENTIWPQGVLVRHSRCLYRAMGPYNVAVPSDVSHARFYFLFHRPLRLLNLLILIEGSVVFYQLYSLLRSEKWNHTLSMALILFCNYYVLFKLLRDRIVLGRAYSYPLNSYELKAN
# UniProt Q9P2I0: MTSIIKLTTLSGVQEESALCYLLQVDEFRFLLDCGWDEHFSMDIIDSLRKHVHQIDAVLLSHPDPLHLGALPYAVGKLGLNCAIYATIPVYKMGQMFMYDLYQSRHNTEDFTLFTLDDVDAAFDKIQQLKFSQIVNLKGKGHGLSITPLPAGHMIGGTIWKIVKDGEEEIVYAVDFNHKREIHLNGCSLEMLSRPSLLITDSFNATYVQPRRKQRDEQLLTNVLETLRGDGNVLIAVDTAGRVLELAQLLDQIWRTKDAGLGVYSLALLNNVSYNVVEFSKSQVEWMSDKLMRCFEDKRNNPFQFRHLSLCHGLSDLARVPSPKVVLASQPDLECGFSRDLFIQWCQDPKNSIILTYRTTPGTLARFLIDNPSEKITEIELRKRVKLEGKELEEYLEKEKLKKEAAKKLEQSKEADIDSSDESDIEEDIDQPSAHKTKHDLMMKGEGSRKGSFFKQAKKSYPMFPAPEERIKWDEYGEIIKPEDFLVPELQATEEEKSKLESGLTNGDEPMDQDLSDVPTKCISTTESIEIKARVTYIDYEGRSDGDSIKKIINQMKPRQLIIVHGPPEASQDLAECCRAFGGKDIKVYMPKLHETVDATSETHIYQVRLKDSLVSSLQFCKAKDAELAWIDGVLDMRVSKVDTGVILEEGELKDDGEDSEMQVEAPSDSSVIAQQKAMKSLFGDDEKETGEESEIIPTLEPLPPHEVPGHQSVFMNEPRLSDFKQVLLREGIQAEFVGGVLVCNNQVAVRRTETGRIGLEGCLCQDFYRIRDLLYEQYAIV
# UniProt Q9UBQ5, whole entry: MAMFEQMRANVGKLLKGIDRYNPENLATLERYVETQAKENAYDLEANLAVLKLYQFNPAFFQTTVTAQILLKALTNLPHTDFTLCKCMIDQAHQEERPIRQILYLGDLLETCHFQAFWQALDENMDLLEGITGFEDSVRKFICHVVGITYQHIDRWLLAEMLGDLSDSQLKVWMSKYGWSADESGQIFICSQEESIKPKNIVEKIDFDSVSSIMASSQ
# UniProt Q9NVU0: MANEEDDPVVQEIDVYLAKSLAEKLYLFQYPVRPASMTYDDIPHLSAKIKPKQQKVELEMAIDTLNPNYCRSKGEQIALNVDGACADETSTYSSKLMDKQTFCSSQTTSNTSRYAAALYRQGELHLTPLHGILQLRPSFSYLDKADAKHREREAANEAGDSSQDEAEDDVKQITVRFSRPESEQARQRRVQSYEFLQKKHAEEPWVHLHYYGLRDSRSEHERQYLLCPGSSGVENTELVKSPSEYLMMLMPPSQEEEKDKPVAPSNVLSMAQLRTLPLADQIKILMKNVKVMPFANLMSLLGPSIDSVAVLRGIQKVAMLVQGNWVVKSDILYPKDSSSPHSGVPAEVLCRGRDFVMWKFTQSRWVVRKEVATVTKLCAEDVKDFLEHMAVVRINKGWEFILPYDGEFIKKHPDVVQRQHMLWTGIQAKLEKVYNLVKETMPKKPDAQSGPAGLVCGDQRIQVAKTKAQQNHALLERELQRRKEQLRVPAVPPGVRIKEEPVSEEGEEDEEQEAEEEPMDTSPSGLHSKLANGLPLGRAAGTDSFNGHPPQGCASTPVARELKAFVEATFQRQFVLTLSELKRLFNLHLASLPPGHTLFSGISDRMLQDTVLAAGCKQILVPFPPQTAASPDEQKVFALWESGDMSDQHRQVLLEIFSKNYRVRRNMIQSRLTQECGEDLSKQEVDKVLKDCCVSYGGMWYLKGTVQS
# UniProt Q9NW13: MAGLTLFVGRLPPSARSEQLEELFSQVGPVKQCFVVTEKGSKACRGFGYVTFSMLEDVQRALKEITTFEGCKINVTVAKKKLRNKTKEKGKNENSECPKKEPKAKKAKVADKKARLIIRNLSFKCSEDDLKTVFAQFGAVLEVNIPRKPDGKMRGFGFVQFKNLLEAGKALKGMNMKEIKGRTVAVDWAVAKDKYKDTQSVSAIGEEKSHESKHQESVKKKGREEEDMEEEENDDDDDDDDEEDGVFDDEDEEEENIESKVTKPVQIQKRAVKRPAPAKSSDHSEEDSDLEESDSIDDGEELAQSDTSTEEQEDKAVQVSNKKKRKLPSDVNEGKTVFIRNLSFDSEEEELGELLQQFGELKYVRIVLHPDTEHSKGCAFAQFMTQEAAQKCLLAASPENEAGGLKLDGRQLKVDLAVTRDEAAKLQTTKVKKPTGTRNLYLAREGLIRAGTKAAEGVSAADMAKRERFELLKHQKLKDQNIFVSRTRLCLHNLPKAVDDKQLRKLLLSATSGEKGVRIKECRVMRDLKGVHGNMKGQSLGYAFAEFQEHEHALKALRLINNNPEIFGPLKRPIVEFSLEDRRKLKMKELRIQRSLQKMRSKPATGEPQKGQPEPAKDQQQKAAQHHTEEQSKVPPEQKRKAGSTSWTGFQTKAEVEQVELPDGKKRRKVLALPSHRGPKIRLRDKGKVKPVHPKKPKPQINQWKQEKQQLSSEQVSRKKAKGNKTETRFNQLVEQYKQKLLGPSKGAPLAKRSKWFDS
# UniProt Q9UFW8: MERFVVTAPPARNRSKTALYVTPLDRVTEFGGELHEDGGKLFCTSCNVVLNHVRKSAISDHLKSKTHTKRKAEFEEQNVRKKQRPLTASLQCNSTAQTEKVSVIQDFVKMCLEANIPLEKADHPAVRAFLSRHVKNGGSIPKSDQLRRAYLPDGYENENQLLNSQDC
# UniProt Q9P258, whole entry, looked up: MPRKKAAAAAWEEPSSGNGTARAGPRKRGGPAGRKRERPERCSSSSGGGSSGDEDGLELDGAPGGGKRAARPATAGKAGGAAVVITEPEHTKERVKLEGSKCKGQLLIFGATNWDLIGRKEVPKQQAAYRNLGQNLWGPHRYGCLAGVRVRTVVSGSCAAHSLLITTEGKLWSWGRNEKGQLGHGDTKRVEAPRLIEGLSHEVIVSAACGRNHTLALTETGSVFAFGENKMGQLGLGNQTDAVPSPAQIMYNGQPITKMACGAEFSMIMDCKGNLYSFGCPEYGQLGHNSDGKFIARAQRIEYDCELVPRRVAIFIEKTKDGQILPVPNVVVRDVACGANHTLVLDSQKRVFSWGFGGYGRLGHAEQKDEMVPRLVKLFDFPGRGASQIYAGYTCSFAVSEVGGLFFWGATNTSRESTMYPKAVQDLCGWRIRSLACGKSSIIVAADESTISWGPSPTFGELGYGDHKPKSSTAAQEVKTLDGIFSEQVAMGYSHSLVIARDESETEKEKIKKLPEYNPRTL
# UniProt Q9P260: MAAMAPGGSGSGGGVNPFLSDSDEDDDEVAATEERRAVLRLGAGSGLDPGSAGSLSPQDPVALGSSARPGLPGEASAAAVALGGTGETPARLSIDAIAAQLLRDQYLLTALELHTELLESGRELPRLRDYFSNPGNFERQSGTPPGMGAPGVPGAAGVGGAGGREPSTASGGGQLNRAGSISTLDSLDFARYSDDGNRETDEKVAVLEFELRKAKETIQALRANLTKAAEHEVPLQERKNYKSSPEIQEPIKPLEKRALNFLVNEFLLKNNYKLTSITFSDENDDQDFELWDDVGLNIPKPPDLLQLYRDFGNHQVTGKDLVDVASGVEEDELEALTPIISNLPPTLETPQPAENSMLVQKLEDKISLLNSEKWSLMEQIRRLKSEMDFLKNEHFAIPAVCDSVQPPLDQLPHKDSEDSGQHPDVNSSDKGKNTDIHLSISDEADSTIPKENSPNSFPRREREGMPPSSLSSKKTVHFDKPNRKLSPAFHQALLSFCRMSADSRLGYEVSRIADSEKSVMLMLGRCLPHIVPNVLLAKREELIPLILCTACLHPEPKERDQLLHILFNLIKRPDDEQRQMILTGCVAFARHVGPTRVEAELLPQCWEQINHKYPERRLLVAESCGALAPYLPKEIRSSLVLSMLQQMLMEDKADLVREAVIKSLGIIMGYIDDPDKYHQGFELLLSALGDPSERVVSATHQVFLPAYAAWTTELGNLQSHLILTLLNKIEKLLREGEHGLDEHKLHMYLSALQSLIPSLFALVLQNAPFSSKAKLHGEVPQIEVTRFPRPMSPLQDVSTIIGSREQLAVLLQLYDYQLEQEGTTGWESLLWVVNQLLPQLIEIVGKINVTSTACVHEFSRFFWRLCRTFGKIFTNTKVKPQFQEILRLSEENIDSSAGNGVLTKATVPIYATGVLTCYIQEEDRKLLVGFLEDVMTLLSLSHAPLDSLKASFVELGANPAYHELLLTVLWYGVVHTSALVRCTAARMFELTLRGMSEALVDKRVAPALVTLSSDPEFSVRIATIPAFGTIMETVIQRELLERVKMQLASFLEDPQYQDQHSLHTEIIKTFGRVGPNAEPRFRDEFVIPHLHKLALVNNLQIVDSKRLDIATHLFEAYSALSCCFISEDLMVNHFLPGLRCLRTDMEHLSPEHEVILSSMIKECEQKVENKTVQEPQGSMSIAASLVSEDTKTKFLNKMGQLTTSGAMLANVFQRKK
# UniProt Q9UBD5: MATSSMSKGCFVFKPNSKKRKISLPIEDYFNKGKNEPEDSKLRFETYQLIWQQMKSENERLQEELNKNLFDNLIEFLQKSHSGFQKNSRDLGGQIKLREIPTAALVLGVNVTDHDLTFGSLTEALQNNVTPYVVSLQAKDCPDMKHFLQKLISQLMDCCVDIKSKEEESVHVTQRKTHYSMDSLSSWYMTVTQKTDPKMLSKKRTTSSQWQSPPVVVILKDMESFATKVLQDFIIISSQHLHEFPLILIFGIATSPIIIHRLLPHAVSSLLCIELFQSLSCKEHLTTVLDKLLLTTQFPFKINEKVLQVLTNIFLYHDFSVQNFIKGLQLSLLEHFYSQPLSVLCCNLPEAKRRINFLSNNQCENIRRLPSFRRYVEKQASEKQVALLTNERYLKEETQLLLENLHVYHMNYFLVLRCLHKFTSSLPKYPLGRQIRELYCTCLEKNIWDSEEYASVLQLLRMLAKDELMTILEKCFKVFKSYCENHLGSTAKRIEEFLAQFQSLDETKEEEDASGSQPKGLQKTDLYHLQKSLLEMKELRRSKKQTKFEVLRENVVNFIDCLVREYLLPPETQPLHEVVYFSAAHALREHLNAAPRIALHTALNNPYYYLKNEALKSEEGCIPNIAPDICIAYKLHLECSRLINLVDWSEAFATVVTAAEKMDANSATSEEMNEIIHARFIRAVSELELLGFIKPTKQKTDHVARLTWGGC
# The entries are a selection whose mix differs from that of the whole data set.
# Compound: COC(=O)C#Cc1ccccc1 [methyl 3-phenylpropiolate]
# Test: log2 ratio of iodoacetamide-alkyne labeling of the cysteine site, DMSO over compound (competition); higher = stronger covalent engagement of the cysteine by the compound, active = 1 or more
# Conditions: 500 µM; treatment time 1 h; system: HEK293T cell lysate
# Outline: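 HEK293T lysate (2 mg/mL) was incubated with electrophile (500 µM) or vehicle for 1 h at ambient temperature and then with iodoacetamide alkyne for 1 h. Labelled proteins were clicked to sCIP-TMT reagents, pooled, digested, enriched on streptavidin and measured by Orbitrap Eclipse LC-MS/MS with FAIMS, with FragPipe quantification. The per-cysteine log2 competition ratio is mean control-channel reporter intensity over mean compound-channel reporter intensity. Across three replicates with duplicate channels, cysteines quantified in only one replicate were excluded.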
row,Target,log2 ratio of iodoacetamide-alkyne labeling
1,BSDC1 C99 (UniProt Q9NW68),inactive: 0.584
2,CDKN2AIP C178 (UniProt Q9NXV6),inactive: 0.391
3,LARS C113 (UniProt Q9P2J5),inactive: 0.179
4,CHMP5 C20 (UniProt Q9NZZ3),inactive: 0.401
5,TMEM30A C17 (UniProt Q9NV96),inactive: 0.217
6,UniProt Q9NWV8_C222,inactive: 0.395
7,UniProt Q9NV64_C29,active: 1.11
8,BCLAF1 C242 (UniProt Q9NYF8),inactive: -0.282
9,CPSF2 C577 (UniProt Q9P2I0),inactive: 0.0423
10,UBA2 C413 (UniProt Q9UBT2),inactive: -0.162
11,SMPD4 C698 (UniProt Q9NXE4),inactive: 0.247
12,NUDT4 C131 (UniProt Q9NZJ9),inactive: 0.306
13,EIF3K C85 (UniProt Q9UBQ5),inactive: 0.258
14,ANKFY1 C460 (UniProt Q9P2R3),active: 1.44
15,EPS15L1 C470 (UniProt Q9UBC2),inactive: 0.13
16,SLAIN2 C306 (UniProt Q9P270),inactive: 0.43
17,POLR3E C456 (UniProt Q9NVU0),inactive: 0.675
18,MED17 C241 (UniProt Q9NVC6),inactive: 0.182
19,MIOS C321 (UniProt Q9NXC5),inactive: 0.126

row,Target,log2 ratio of iodoacetamide-alkyne labeling
1,CPSF2 C765 (UniProt Q9P2I0),active: 1.01
2,UniProt Q9P266_C1347,inactive: 0.0914
3,RBM28 C378 (UniProt Q9NW13),inactive: 0.31
4,COQ3 C186 (UniProt Q9NZJ6),inactive: 0.427
5,ITSN2 C1194 (UniProt Q9NZM3),inactive: -0.296
6,NUDT4 C147 (UniProt Q9NZJ9),inactive: 0.326
7,CGGBP1 C111 (UniProt Q9UFW8),inactive: 0.131
8,PIH1D1 C117 (UniProt Q9NWS0),inactive: -0.0018
9,UniProt Q9NW64_C27,inactive: -0.000923
10,ABCF3 C4 (UniProt Q9NUQ8),inactive: 0.14
11,RCC2 C42 (UniProt Q9P258),inactive: 0.344
12,RBM27 C776 (UniProt Q9P2N5),inactive: 0.232
13,UniProt Q9P260_C624,inactive: 0.299
14,POLR3E C70 (UniProt Q9NVU0),inactive: 0.596
15,SRP68 C586 (UniProt Q9UHB9),inactive: 0.198
16,RCOR3 C233 (UniProt Q9P2K3),inactive: 0.173
17,UniProt Q9UBD5_C621,inactive: 0.166
18,LIMD1 C222 (UniProt Q9UGP4),inactive: 0.4
19,ALKBH4 C204 (UniProt Q9NXW9),inactive: 0.207

# Reprinted at random: 2 entries already listed, in no set order.
row,Target,log2 ratio of iodoacetamide-alkyne labeling
3,RBM28 C378 (UniProt Q9NW13),inactive: 0.31
14,POLR3E C70 (UniProt Q9NVU0),inactive: 0.596
